PubChem BioAssay AID686938, Drosophila RNAi Screening Center, 2013
The deposit covers about 23,000 reagents; shown is a random part of those with a known target gene and a result. In the full data, 75 (0.33%) were called active. 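Raw plate signals without normalisation; calls rest on plate z-scores that were not deposited; ratio present for only 364 wells.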 Names joined by + are all predicted targets of the reagent. Not given: the dose of the treatment.

Screen: 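Knock-downs reducing store-operated calcium influx in Drosophila cells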 (primary screen)
Cells: Drosophila S2R+ cells
Knock-down reagent: long dsRNA against Drosophila genes, about 0.25 µg dsRNA per well, roughly 10,000 cells
Duration: 5 days of knock-down before the calcium assay
Treatment: thapsigargin (SERCA pump blocker) to empty calcium stores; entry signal taken 4 min after adding it
Measured: 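Duplicate raw fluo-4 intensities per well from a plate reader, at rest and four minutes after thapsigargin emptied calcium stores; entry-to-rest ratio filled for only some wells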
Direction: calcium entry signal: higher = stronger calcium signal after store depletion; entry to resting ratio: higher = more calcium entry relative to resting level; resting calcium signal: higher = higher resting calcium signal
Units: calcium entry signal in fluorescence units; resting calcium signal in fluorescence units
Rule for the call: 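Called when the plate z-score of the entry-to-rest ratio, mean of duplicates, falls below −3; wells with low overall dye signal (Fmax z below −2) or more than five off-targets excluded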
Meaning of the calls: active = strongly reduced calcium entry; inactive = no strong reduction

Which result is listed for CG32686 [DRSC17645]?
calcium entry signal, replicate 1: 3.74e7; calcium entry signal, replicate 2: 4.02e7; resting calcium signal, replicate 1: 1.64e7; resting calcium signal, replicate 2: 1.86e7; outcome: inactive

For CG4098 [DRSC10399], how do the results read?
calcium entry signal, replicate 1: 4.04e7; calcium entry signal, replicate 2: 5.20e7; resting calcium signal, replicate 1: 1.93e7; resting calcium signal, replicate 2: 1.89e7; outcome: inactive

How did the screen score Syt7 [DRSC17130]?
calcium entry signal, replicate 1: 5.57e7; calcium entry signal, replicate 2: 6.07e7; entry to resting ratio: 2.2; resting calcium signal, replicate 1: 2.55e7; resting calcium signal, replicate 2: 2.32e7; outcome: inactive

What is on record for Syt7 [DRSC17159]?
calcium entry signal, replicate 1: 4.94e7; calcium entry signal, replicate 2: 5.38e7; entry to resting ratio: 2; resting calcium signal, replicate 1: 2.43e7; resting calcium signal, replicate 2: 2.27e7; outcome: inactive

What did the screen give for Ance-2 [DRSC02539]?
calcium entry signal, replicate 1: 4.17e7; calcium entry signal, replicate 2: 3.12e7; resting calcium signal, replicate 1: 1.91e7; resting calcium signal, replicate 2: 1.54e7; outcome: inactive

With CG18745 [DRSC15382], what was measured?
calcium entry signal, replicate 1: 4.03e7; calcium entry signal, replicate 2: 3.01e7; resting calcium signal, replicate 1: 1.82e7; resting calcium signal, replicate 2: 1.44e7; outcome: inactive

What did the screen give for CG34323 [DRSC18916]?
calcium entry signal, replicate 1: 2.75e7; calcium entry signal, replicate 2: 3.82e7; resting calcium signal, replicate 1: 1.25e7; resting calcium signal, replicate 2: 1.75e7; outcome: inactive

With CG2260 [DRSC18223], what does the deposit list?
calcium entry signal, replicate 1: 1.91e7; calcium entry signal, replicate 2: 1.63e7; resting calcium signal, replicate 1: 1.08e7; resting calcium signal, replicate 2: 9.01e6; outcome: inactive

What did the screen give for CG13527 [DRSC04169]?
calcium entry signal, replicate 1: 3.95e7; calcium entry signal, replicate 2: 5.22e7; resting calcium signal, replicate 1: 2.00e7; resting calcium signal, replicate 2: 2.31e7; outcome: inactive

What is on record for cas [DRSC12373]?
calcium entry signal, replicate 1: 4.88e7; calcium entry signal, replicate 2: 3.06e7; resting calcium signal, replicate 1: 2.38e7; resting calcium signal, replicate 2: 1.60e7; outcome: inactive

With His3:CG33818 + His3:CG33857 + His3:CG33806 + 20 more [DRSC21267], how do the results read?
calcium entry signal, replicate 1: 1.44e7; calcium entry signal, replicate 2: 1.55e7; resting calcium signal, replicate 1: 1.14e7; resting calcium signal, replicate 2: 9.80e6; outcome: inactive

What did the screen give for CG4701 [DRSC01952]?
calcium entry signal, replicate 1: 3.01e7; calcium entry signal, replicate 2: 2.23e7; resting calcium signal, replicate 1: 1.39e7; resting calcium signal, replicate 2: 1.10e7; outcome: inactive

For CG18233 [DRSC10308], what does the deposit list?
calcium entry signal, replicate 1: 3.63e7; calcium entry signal, replicate 2: 5.91e7; resting calcium signal, replicate 1: 1.80e7; resting calcium signal, replicate 2: 2.36e7; outcome: inactive

Which result is listed for fok [DRSC02103]?
calcium entry signal, replicate 1: 6.43e7; calcium entry signal, replicate 2: 4.85e7; resting calcium signal, replicate 1: 3.33e7; resting calcium signal, replicate 2: 2.15e7; outcome: inactive

What did the screen give for CG33332 [DRSC15504]?
calcium entry signal, replicate 1: 3.29e7; calcium entry signal, replicate 2: 4.25e7; resting calcium signal, replicate 1: 1.52e7; resting calcium signal, replicate 2: 6.88e7; outcome: inactive

With Samuel [DRSC02156], what was measured?
calcium entry signal, replicate 1: 2.84e7; calcium entry signal, replicate 2: 4.24e7; resting calcium signal, replicate 1: 1.50e7; resting calcium signal, replicate 2: 1.77e7; outcome: inactive

With Samuel [DRSC02401], what does the deposit list?
calcium entry signal, replicate 1: 3.97e7; calcium entry signal, replicate 2: 3.25e7; resting calcium signal, replicate 1: 1.91e7; resting calcium signal, replicate 2: 1.56e7; outcome: inactive

What did the screen give for Samuel [DRSC02402]?
calcium entry signal, replicate 1: 3.89e7; calcium entry signal, replicate 2: 6.82e7; resting calcium signal, replicate 1: 1.83e7; resting calcium signal, replicate 2: 2.73e7; outcome: inactive

For Samuel [DRSC21731], what was measured?
calcium entry signal, replicate 1: 2.21e7; calcium entry signal, replicate 2: 2.95e7; resting calcium signal, replicate 1: 1.26e7; resting calcium signal, replicate 2: 1.40e7; outcome: inactive

What did the screen give for Samuel [DRSC23114]?
calcium entry signal, replicate 1: 4.82e7; calcium entry signal, replicate 2: 3.14e7; resting calcium signal, replicate 1: 2.34e7; resting calcium signal, replicate 2: 1.49e7; outcome: inactive

For CG14864 [DRSC14987], what was measured?
calcium entry signal, replicate 1: 3.99e7; calcium entry signal, replicate 2: 5.06e7; resting calcium signal, replicate 1: 2.17e7; resting calcium signal, replicate 2: 7.96e7; outcome: inactive

2 successive records from above:
Syt7 [DRSC17130] → calcium entry signal, replicate 1: 5.57e7; calcium entry signal, replicate 2: 6.07e7; entry to resting ratio: 2.2; resting calcium signal, replicate 1: 2.55e7; resting calcium signal, replicate 2: 2.32e7; outcome: inactive
Syt7 [DRSC17159] → calcium entry signal, replicate 1: 4.94e7; calcium entry signal, replicate 2: 5.38e7; entry to resting ratio: 2; resting calcium signal, replicate 1: 2.43e7; resting calcium signal, replicate 2: 2.27e7; outcome: inactive
